Test results as given in the supplement of paper PMC10849652.
The list shows a part of the results.

Chains of the proteins cited; added tags and fusions are not shown. Lines headed by an entry give the natural chain unless they say otherwise; changes in a name come on top.
UniProt Q9UQQ2: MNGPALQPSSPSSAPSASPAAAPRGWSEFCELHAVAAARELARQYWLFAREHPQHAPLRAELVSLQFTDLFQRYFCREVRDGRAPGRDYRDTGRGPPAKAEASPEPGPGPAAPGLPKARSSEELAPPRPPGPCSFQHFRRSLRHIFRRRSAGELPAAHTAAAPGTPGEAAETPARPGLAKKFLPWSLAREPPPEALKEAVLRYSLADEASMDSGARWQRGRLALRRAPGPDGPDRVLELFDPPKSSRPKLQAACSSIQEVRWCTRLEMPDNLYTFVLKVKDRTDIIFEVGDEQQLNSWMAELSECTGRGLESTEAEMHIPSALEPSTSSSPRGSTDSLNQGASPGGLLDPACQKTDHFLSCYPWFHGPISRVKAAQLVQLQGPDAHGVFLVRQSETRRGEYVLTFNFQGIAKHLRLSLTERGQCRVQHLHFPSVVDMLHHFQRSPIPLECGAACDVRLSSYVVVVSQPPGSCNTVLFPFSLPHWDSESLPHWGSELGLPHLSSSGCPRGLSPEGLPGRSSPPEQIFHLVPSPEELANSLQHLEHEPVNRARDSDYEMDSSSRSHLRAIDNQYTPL
UniProt Q9NTG7: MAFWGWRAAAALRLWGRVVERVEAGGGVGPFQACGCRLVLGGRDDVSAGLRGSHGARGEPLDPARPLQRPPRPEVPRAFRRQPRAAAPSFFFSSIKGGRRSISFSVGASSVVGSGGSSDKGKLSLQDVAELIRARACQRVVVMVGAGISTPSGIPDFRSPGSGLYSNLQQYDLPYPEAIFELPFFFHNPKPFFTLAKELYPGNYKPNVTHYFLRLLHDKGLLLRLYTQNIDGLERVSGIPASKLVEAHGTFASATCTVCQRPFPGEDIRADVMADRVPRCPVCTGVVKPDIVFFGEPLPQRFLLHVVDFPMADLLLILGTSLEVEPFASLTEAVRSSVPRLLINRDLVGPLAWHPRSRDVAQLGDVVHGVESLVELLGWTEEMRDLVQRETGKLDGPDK
UniProt Q9UHW9: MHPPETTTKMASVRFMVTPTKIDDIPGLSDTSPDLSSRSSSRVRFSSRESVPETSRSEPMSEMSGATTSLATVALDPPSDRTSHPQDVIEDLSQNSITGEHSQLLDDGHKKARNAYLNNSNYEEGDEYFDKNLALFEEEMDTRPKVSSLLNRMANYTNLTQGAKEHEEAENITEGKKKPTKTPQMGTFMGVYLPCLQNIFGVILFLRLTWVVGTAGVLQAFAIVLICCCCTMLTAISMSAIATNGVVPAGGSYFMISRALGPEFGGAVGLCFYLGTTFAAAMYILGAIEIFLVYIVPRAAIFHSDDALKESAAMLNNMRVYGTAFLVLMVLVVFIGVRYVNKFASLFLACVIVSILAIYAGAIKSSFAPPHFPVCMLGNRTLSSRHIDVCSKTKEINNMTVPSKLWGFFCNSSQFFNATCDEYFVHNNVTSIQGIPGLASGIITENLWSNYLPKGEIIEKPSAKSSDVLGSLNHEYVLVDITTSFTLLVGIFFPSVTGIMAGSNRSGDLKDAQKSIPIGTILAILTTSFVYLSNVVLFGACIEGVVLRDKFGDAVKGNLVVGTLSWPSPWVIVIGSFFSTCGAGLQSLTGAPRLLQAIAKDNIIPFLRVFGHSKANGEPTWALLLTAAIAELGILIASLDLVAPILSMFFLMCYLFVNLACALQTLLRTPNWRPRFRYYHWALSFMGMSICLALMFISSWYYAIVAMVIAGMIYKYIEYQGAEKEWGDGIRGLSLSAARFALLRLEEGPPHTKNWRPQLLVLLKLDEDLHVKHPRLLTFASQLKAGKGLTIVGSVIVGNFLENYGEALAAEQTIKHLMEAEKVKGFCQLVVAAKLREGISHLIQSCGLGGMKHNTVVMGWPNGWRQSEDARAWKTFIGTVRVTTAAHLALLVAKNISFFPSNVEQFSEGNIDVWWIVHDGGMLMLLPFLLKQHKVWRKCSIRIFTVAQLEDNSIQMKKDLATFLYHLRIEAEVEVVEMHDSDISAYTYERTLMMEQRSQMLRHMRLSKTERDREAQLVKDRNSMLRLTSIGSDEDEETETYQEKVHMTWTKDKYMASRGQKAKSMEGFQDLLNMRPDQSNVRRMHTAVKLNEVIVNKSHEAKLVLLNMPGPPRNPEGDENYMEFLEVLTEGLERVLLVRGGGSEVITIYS
UniProt O14796: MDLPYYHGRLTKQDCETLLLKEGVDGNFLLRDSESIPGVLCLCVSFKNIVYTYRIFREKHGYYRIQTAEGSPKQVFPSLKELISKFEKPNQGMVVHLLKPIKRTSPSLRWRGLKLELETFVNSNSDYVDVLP
UniProt Q96HU1: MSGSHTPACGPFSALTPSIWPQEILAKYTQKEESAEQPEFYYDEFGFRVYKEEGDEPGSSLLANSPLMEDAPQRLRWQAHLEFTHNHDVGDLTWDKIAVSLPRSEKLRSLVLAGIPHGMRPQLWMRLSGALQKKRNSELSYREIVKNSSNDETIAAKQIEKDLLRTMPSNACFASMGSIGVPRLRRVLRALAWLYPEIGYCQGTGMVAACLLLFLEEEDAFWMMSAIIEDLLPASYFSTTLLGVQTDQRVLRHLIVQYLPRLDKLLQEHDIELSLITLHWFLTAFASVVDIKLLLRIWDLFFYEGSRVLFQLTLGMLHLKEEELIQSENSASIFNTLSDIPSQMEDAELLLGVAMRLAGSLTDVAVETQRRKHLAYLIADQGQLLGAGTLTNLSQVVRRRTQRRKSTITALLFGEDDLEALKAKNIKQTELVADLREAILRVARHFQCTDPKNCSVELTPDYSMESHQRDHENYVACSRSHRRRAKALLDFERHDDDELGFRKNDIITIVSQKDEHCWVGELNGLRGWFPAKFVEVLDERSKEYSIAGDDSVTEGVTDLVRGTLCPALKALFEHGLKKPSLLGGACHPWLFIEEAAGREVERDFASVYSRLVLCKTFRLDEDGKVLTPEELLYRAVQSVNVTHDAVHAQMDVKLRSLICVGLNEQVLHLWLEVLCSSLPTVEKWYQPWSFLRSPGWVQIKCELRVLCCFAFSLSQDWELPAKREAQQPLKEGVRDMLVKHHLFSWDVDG
UniProt Q15464: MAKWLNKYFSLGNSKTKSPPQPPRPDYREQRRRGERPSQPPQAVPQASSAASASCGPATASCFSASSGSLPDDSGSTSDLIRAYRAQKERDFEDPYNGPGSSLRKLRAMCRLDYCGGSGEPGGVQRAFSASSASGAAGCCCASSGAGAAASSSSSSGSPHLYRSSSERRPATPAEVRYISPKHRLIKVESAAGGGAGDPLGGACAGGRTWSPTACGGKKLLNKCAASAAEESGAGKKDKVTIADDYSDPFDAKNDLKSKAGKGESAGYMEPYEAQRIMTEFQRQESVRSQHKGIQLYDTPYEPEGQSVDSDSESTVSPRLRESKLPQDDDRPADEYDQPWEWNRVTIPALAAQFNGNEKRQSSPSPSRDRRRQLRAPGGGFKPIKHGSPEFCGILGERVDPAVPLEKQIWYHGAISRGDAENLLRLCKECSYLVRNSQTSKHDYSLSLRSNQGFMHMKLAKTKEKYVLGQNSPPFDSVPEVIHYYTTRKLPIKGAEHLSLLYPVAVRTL
UniProt Q9H0F6: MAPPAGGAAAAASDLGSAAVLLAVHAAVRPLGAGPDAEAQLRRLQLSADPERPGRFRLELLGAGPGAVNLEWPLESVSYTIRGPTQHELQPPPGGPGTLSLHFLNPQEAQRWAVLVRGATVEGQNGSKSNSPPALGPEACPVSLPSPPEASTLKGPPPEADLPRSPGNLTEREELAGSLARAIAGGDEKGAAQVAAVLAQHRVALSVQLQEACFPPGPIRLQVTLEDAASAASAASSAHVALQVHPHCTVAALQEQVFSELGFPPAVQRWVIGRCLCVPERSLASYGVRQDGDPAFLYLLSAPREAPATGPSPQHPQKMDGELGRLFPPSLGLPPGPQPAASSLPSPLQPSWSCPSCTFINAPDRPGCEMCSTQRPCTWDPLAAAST
UniProt Q7Z333: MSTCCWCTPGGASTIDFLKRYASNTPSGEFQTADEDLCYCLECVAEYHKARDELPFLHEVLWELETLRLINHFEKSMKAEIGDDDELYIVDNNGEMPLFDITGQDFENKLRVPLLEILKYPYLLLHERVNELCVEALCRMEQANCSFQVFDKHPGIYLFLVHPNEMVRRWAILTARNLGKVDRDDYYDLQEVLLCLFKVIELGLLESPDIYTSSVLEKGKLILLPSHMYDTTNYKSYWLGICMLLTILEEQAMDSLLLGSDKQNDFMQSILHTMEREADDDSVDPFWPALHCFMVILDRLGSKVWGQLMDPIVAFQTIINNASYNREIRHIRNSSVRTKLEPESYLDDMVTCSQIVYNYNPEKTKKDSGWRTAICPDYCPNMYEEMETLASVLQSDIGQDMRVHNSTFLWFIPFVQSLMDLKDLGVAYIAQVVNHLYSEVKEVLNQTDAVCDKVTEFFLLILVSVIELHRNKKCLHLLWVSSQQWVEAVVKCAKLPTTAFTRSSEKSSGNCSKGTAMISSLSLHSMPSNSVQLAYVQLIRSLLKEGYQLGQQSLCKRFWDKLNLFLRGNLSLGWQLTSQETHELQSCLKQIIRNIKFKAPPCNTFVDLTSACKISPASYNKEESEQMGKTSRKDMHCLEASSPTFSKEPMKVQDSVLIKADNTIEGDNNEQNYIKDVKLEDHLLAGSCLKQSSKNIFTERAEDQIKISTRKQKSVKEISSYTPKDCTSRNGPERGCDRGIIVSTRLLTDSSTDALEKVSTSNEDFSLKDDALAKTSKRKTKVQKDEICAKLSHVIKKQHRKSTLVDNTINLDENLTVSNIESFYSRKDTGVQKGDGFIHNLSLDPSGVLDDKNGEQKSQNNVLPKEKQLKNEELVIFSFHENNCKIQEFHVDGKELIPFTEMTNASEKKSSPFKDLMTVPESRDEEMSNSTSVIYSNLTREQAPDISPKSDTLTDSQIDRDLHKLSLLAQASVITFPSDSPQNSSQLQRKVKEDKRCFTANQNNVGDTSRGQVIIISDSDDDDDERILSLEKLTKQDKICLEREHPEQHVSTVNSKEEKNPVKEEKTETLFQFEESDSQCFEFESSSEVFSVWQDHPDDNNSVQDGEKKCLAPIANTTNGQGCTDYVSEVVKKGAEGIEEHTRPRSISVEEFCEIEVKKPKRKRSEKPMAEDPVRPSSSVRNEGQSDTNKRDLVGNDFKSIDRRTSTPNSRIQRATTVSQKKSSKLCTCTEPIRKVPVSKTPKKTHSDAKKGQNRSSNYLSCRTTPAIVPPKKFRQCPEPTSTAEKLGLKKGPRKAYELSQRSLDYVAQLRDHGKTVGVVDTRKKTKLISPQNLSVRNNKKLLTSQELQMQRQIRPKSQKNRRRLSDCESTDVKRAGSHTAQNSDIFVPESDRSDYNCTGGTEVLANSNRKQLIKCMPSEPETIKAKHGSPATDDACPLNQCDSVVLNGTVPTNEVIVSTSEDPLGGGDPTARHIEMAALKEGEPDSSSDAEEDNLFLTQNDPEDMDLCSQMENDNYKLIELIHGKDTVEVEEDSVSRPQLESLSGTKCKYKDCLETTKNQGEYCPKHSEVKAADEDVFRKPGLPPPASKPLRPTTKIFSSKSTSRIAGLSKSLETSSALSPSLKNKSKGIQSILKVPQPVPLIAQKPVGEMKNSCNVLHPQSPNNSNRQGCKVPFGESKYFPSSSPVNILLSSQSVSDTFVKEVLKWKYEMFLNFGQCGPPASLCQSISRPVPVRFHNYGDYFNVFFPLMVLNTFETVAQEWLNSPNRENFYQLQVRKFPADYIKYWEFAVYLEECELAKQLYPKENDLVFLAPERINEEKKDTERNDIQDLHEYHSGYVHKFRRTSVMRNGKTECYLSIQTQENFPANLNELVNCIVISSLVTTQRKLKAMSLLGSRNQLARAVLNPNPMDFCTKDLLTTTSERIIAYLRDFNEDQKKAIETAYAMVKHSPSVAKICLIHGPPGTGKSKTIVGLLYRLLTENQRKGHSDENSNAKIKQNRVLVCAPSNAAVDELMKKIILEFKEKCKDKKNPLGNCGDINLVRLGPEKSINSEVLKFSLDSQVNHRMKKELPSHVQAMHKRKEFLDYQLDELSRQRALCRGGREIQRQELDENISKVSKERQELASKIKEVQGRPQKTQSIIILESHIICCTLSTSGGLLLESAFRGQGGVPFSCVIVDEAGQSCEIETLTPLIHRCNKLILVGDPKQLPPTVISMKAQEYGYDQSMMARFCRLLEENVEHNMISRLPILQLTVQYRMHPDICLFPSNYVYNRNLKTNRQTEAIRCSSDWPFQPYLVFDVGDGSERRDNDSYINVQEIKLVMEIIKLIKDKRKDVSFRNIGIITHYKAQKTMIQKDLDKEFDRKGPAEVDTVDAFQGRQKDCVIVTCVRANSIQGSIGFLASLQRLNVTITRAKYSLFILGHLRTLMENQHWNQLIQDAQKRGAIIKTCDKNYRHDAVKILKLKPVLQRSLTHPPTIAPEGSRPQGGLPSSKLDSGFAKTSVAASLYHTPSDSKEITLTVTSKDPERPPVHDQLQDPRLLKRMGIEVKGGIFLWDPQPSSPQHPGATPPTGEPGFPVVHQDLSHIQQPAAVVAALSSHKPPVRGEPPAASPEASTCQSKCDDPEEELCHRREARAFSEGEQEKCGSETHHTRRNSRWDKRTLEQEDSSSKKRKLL

Columns and labels:
Assay in all cases: log2 fold change, soluble protein after heating vs DMSO (PISA); higher = thermal stabilisation; K562 lysate, 10 uM; active = over 0.2 and 3.5 SD of the protein, either way, in both replicates (recomputed)
[1] = compound: CC(=O)c1cnc2ccc(-c3cc(Cl)c(O)c(Cl)c3)nc2c1N[C@H]1CC[C@H](CN(C)C)CC1
Summary of the method: (§1)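 Thermal stability, expressed as log-two fold change relative to solvent controls, is given from duplicates. Crude K562 extract in PBS pH 7.4 with 1 mM MgCl2, at 1 mg/mL protein, was treated with 10 μM compound for 30 min and heated in aliquots for 3 min across 48°C-58°C. After pooling, adjustment to 0.5% NP-40 at 4°C and centrifugation at 21,000xg for 90 min, supernatant protein was measured by TMTpro 16plex LC-MS/MS with channel sums equalised.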

[2] = compound: CC1=CC=C(C=C1)SC2=C3C=C(SC3=CN=C2)C(=O)N
Summary of the method: as §1

[3] = compound: CC(C)(C)Cn1c(N)nc2ccc(-c3[nH]c(C(C)(C)C)nc3-c3ccc(F)cc3)nc21 [ralimetinib]
Summary of the method: as §1

[4] = compound: CC(C)(O)CC(=O)NCCn1ccc2ncnc(Nc3ccc(Oc4cccc(C(F)(F)F)c4)c(Cl)c3)c21
Summary of the method: as §1

[5] = compound: CC1=C(C=C(C=C1)NC(=O)C2=CC(=CC=C2)C(C)(C)C#N)NC3=CC4=C(C=C3)N=CN(C4=O)C
Summary of the method: as §1

[6] = compound: CC1=C(C=C(C=C1)NC(=O)C2=CC(=CC=C2)N(C)C)NC(=O)C3=CC=C(C=C3)O
Summary of the method: as §1

[7] = compound: CC(C)C1=C2N=C(C=C(N2N=C1)NCC3=CC=CC=C3)NCCCCCCN
Summary of the method: as §1

[8] = compound: CC1=C(C(CC(=O)N1)C2=CC=C(C=C2)C(F)(F)F)C(=O)NC3=C(C=C4C(=C3)C=NN4)F
Summary of the method: as §1

[9] = compound: CC1=C(C2=C(C=C1)C(=O)C3=CC=CC=C3N2CCCN)C
Summary of the method: as §1

[10] = compound: C=CC(=O)N1CCC[C@@H](n2nc(-c3ccc(Oc4ccccc4)cc3)c3c(N)ncnc32)C1 [ibrutinib]
Summary of the method: as §1

Measured: log2 fold change

SIGIRR (UniProt Q6IA17)
inactive: [1] 0.072 | [2] -0.055

SESTD1 (UniProt Q86VW0)
inactive: [3] 0.102 | [4] -0.109 | [5] -0.267 | [6] 0.054

SETD6 (UniProt Q8TBK2)
inactive: [3] -0.029 | [4] -0.253 | [7] -0.141 | [8] 0.051 | [9] -0.128 | [6] 0.103

SF1 (UniProt H7C0N4)
inactive: [1] -0.045 | [5] -0.078 | [2] 0.036

SGMS1 (UniProt Q86VZ5)
inactive: [1] 0.003 | [3] -0.001 | [4] 0.007 | [7] 0.007 | [8] -0.02 | [9] 0.051 | [5] -0.082 | [6] 0.003 | [2] 0.057

SKP2 (UniProt Q13309)
active: [2] -0.576
inactive: [1] -0.137 | [3] 0.137 | [4] 0.045 | [7] 0.058 | [8] -0.041 | [9] 0.023 | [5] -0.097 | [6] -0.015

SH2B3 (UniProt Q9UQQ2)
inactive: [7] 0.032 | [5] -0.11

Quoted at random: three records from the list
SESTD1 (UniProt Q86VW0)
inactive: [3] 0.102 | [4] -0.109 | [5] -0.267 | [6] 0.054

SETD6 (UniProt Q8TBK2)
inactive: [3] -0.029 | [4] -0.253 | [7] -0.141 | [8] 0.051 | [9] -0.128 | [6] 0.103

SKP2 (UniProt Q13309)
active: [2] -0.576
inactive: [1] -0.137 | [3] 0.137 | [4] 0.045 | [7] 0.058 | [8] -0.041 | [9] 0.023 | [5] -0.097 | [6] -0.015

Additional records follow.

SLC18B1 (UniProt Q6NT16)
inactive: [1] -0.017 | [3] -0.066 | [4] -0.061 | [7] -0.02 | [8] -0.136 | [5] 0.025 | [6] 0.044 | [2] 0.069

SLC10A4 (UniProt Q96EP9)
inactive: [1] -0.21 | [3] 0.032 | [4] 0.054 | [7] 0.044 | [9] -0.007 | [6] 0.124 | [2] 0.023

SIAH1 isoform 2 (UniProt Q8IUQ4)
inactive: [1] -0.005 | [3] -0.038 | [4] -0.021 | [7] 0.041 | [8] 0.09 | [5] -0.02 | [6] -0.055 | [2] -0.033

SHMT1 (UniProt J3KRZ5)
inactive: [8] -0.339

SLC12A7 (UniProt Q9Y666)
inactive: [1] -0.147 | [2] 0.037

SLC11A1, A0A0A0MTL3
inactive: [1] -0.119 | [8] -0.083 | [2] 0.097

SETD1B (UniProt Q9UPS6)
inactive: [10] 0.075 | [9] -0.079 | [5] -0.005

SFT2D3 (UniProt Q587I9)
inactive: [1] -0.082 | [3] -0.165 | [4] 0.113 | [7] 0.057 | [8] -0.01 | [9] -0.077 | [5] -0.002 | [6] -0.109 | [2] 0.038

SLC16A3 (UniProt O15427)
inactive: [3] 0.204 | [4] -0.034 | [6] 0.183

SIN3B (UniProt O75182)
inactive: [8] 0.19 | [5] 1.04

SIRT3 (UniProt Q9NTG7)
inactive: [1] 0.009 | [3] 0.105 | [4] -0.085 | [7] -0.044 | [9] 0.06 | [5] -0.047 | [6] 0.02 | [2] -0.062

SGK3 (UniProt Q96BR1)
inactive: [3] 0.091 | [4] -0.119 | [7] -0.255 | [9] -0.012 | [6] -0.163

SIK2 (UniProt Q9H0K1)
inactive: [3] 0.033 | [4] -0.039 | [8] 0.004 | [6] -0.141

SIK3 (UniProt Q9Y2K2)
inactive: [3] -0.1 | [4] 0.014 | [7] -0.053 | [8] -0.045 | [9] -0.07 | [5] -0.067 | [6] 0.087

SHLD1 (UniProt Q8IYI0)
inactive: [9] 0.125

SET isoform 3 (UniProt Q01105)
inactive: [9] -0.002

SFT2D1 (UniProt Q8WV19)
inactive: [9] -0.079 | [5] -0.145

SLC12A6 isoform 2 (UniProt Q9UHW9)
inactive: [1] 0.016 | [3] -0.01 | [4] 0.017 | [7] -0.018 | [9] 0.027 | [5] 0.063 | [6] -0.006 | [2] 0.122

SERPINB7 (UniProt O75635)
inactive: [3] -0.161 | [4] 0.471 | [5] 0.523 | [6] 0.009

SKOR2 (UniProt Q2VWA4)
inactive: [1] -0.084 | [3] -0.025 | [4] -0.196 | [7] -0.005 | [9] -0.023 | [5] 0.133 | [6] -0.058 | [2] -0.098

SH2D1B (UniProt O14796)
inactive: [3] -0.021 | [4] 0.149 | [9] -0.114 | [5] 0.067 | [6] -0.002

SINHCAF (UniProt Q9NP50)
inactive: [3] 0.047 | [4] -0.1 | [7] -0.007 | [8] 0.086 | [9] 0.094 | [5] 0.012 | [6] 0.022

SFXN5 (UniProt Q8TD22)
inactive: [1] -0.009 | [3] -0.027 | [4] -0.046 | [7] -0.146 | [8] 0.049 | [9] -0.066 | [5] -0.033 | [6] -0.037 | [2] -0.083

SERPINH1 (UniProt E9PK86)
inactive: [8] -0.222

SIMC1 (UniProt Q8NDZ2)
inactive: [10] -0.141 | [8] -0.072 | [5] 0.35

SERPINF2 (UniProt P08697)
inactive: [10] -0.098 | [5] 0.005

SLAIN2 (UniProt D6RIF6)
inactive: [3] -0.167 | [4] -0.353 | [5] 0.037 | [6] -0.015

SKIL (UniProt P12757)
inactive: [3] -0.096 | [4] -0.152 | [7] 0.046 | [6] 0.042

SGSM3 isoform 2 (UniProt Q96HU1)
inactive: [1] -0.089 | [3] -0.046 | [4] -0.031 | [7] 0.05 | [8] 0.092 | [5] -0.009 | [6] 0.025 | [2] 0

SERPINA1 (UniProt P01009)
inactive: [3] -0.07 | [4] 0.303 | [9] -0.057 | [6] 0.031

SHB (UniProt Q15464)
inactive: [1] -0.023 | [3] 0.023 | [4] -0.025 | [7] -0.009 | [9] -0.01 | [5] 0.023 | [6] -0.012 | [2] 0.05

SHARPIN (UniProt Q9H0F6)
inactive: [1] -0.109 | [3] 0.042 | [4] 0.002 | [7] 0.153 | [8] -0.07 | [9] -0.063 | [5] 0.001 | [6] 0.009 | [2] -0.138

SETX isoform 4 (UniProt Q7Z333)
inactive: [1] -0.073 | [3] 0.074 | [4] -0.09 | [7] 0.045 | [8] -0.002 | [9] -0.008 | [5] -0.011 | [6] 0.019 | [2] -0.08
